Data taken from PubChem BioAssay AID2685 (National Center for Advancing Translational Sciences (NCATS), 2010).
The other results are listed elsewhere or left out. These are further read-outs of the screen, such as a control signal, another cell line or another target. No call is given for them. Most of these compounds were active or inconclusive in the main read-out, so they are no random draw. Potencies come from curve fits of mixed quality, noted in brackets.

Test: qHTS Assay for Lipid Storage Modulators in Drosophila S3 Cells;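 as to cell number change: cells counted by Cell Tracker Red CMTPX staining in the red channel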
Details: BODIPY lipid droplet fluorescence, 18-24 h; for cell number change: measured here: cell count max response, cells fed with added oleic acid
Outline: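 Drosophila S3 cells got compounds at several concentrations plus oleic acid (400 uM solution). Laser-scanning cytometry with 488 nm excitation read lipid droplets at 500-530 nm and cells at 575-640 nm. Percent activity was relative to 20 uM Triacsin C.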

[1] = measured here: cell number channel AC50, cells fed with added oleic acid
[2] = measured here: lipid fluorescence (Fed channel) AC50, cells fed with added oleic acid

Row | Compound | cell number change [%] | AC50 [1] | AC50 [2]
1 | CN(C)S(=O)(=O)n1cnc([C@@H]2[C@H]3C(=O)OC[C@@H]3C[C@@]23N=CN(Cc2ccccc2)C3=O)c1 | 4.08 | 0.146 µM [falling, single point] | –
2 | ClC(Cl)(c1nnnn1-c1ccccc1)c1nnnn1-c1ccccc1 | -85.3 | 23.1 µM [falling, partial curve] | 16.4 µM [falling, partial curve]
3 | Cc1ccc(-c2cc(Cc3ccc(N(C)C)cc3)c(=O)[nH]n2)cc1 | -2.17 | – | –
4 | COc1c(C)cc(Br)cc1C(=O)O | -117 | 29.1 µM [falling, single point] | –
5 | CCN(CC(=O)Nc1ccc2c(c1)OCCO2)c1nc(-c2cccnc2)nc2ccccc12 | -11.5 | – | 4.11 µM [rising, single point]
6 | Fc1ccc2cnc(-c3ccccc3)c(-c3ccc(C(F)(F)F)cc3)c2c1 | -26.1 | – | 23.1 µM [falling, single point]
7 | CCOC(=O)/C(=N\Nc1ccccc1)S(=O)(=O)c1ccccc1 | – | 6.51 µM [rising, single point] | –
8 | CC1Cc2ccccc2N1CC(=O)Nc1ccc(Cl)c(S(=O)(=O)N(C)C)c1 (stereo unspecified) | 52.8 | 14.6 µM [rising, partial curve, poor fit] | 16.4 µM [rising, partial curve]
9 | O=C(COC(=O)CCc1ccc(S(=O)(=O)N2CCOCC2)cc1)NCc1ccc(Cl)cc1 | -28 | 0.326 µM [falling, partial curve, poor fit] | –
10 | CCn1c2ccccc2c2nnc(SCc3cc(=O)n4ccsc4n3)nc21 | -12.4 | – | 2.59 µM [rising, single point]
11 | O=C(Nc1sc2c(c1C(=O)NCCCO)CCCC2)c1ccccc1 | -45 | 10.3 µM [falling, partial curve, poor fit] | 18.4 µM [falling, partial curve, poor fit]
12 | COc1ccc(N(C)C(=O)CCS(=O)(=O)c2cccc3nsnc23)cc1 | – | 0.291 µM [falling, full curve, poor fit] | –
13 | CCN(CC)S(=O)(=O)c1ccc(OC)c(NC(=O)Cc2cccs2)c1 | – | – | 0.0651 µM [rising, full curve, poor fit]
14 | COc1ccc2nc(NC(=O)CSCc3c(C)noc3C)sc2c1 | – | – | 23.1 µM [rising, single point]
15 | Cc1nc(-c2coc3cc(O)c(C)cc3c2=O)cs1 | – | 1.03 µM [falling, full curve] | 6.51 µM [falling, single point]
16 | Cc1ccccc1NC(=O)C1CCCN(C(=O)NCc2ccccc2)C1 (stereo unspecified) | 34.9 | 29.1 µM [rising, single point] | –
17 | Cc1cccnc1NC(=O)c1ccc(S(=O)(=O)N2CCCCCC2)cc1 | 50 | 0.164 µM [falling, full curve, poor fit] | –
18 | c1ccc2c(c1)cnc1ccccc12 | 23.4 | – | –
19 | CC1=C(Sc2ccccn2)C(=O)NC(C)(C)C1 | -4.79 | – | 29.1 µM [falling, single point]
20 | CS(=O)(=O)NC1CCN(Cc2ccccc2)CC1 | -1.83 | – | 14.6 µM [falling, partial curve, poor fit]

One compound at a time, as listed above.
CN(C)S(=O)(=O)n1cnc([C@@H]2[C@H]3C(=O)OC[C@@H]3C[C@@]23N=CN(Cc2ccccc2)C3=O)c1 as listed: cell number change [%]: 4.08; AC50 [1]: 0.146 µM [falling, single point]
CCN(CC)S(=O)(=O)c1ccc(OC)c(NC(=O)Cc2cccs2)c1 as listed: AC50 [2]: 0.0651 µM [rising, full curve, poor fit]
COc1ccc2nc(NC(=O)CSCc3c(C)noc3C)sc2c1 as listed: AC50 [2]: 23.1 µM [rising, single point]
Cc1nc(-c2coc3cc(O)c(C)cc3c2=O)cs1 as listed: AC50 [1]: 1.03 µM [falling, full curve]; AC50 [2]: 6.51 µM [falling, single point]

Continuation:

Row | Compound | cell number change [%] | AC50 [1] | AC50 [2]
21 | CCc1ccc(C(C(=O)NC2CCCC2)N(C(=O)/C=C/C(=O)Nc2cc(C)on2)c2ccccc2C)cc1 (stereo unspecified) | – | – | 0.82 µM [rising, partial curve]
22 | CC1(C)CC(=O)C(N=Nc2cc3c(cc2[N+](=O)[O-])OCCO3)=C(O)C1 | 63.7 | 4.61 µM [rising, full curve] | –
23 | Cc1cc(C)c(C)c(S(=O)(=O)N2CCC(C(=O)Nc3ccc(S(=O)(=O)N4CCOCC4)cc3)CC2)c1C | 48.7 | 23.1 µM [rising, single point] | 11.6 µM [falling, partial curve]
24 | COc1ccc(OC)c(-c2csc(NC(=O)Cc3ccc(F)cc3)n2)c1 | 16.7 | – | 29.1 µM [rising, single point]
25 | Cc1cc(C(=O)NC2CC(C)(C)Cc3c2cnn3-c2ccc(F)cc2)nn1C (stereo unspecified) | -58.2 | 25.9 µM [falling, partial curve] | –
26 | COc1ccc(NC(=O)c2ccc(COCC(F)(F)F)cc2)cc1OC | 11.7 | – | 4.11 µM [rising, full curve, poor fit]
27 | CCn1c(C)cc(/C=C2/NC(=O)N(c3ccccc3)C2=O)c1C | – | 6.51 µM [rising, single point] | –
28 | Cc1sc2ncnc(N3CCC(C(=O)N(C)CC(=O)Nc4ccc(Cl)c(C(F)(F)F)c4)CC3)c2c1C | -40.2 | 9.2 µM [falling, partial curve, poor fit] | –
29 | COc1ccccc1NS(=O)(=O)c1cccc(C(=O)OCC(=O)Nc2cc(C)on2)c1 | 0.279 | – | 0.731 µM [rising, single point]
30 | O=C(O)c1cccc(-c2ccc(/C=N/n3cnnc3)o2)c1 | – | – | 29.1 µM [rising, single point]
31 | COc1ccc(COn2nnc3ccc(S(=O)(=O)N4CCOCC4)cc32)cc1F | -75 | 1.84 µM [falling, partial curve, poor fit] | –
32 | C=CCn1cc(C(=O)N2CCN(C)CC2)c(=O)c2cc(S(=O)(=O)N(CC)CC)ccc21 | 20.2 | – | 0.58 µM [rising, partial curve, poor fit]
33 | CCCNC(=O)C(CC)NC(=O)c1ccc(C#N)cc1 (stereo unspecified) | -53 | 29.1 µM [falling, single point] | –
34 | Cc1ccccc1NC(=O)CSCc1cc(=O)n2ccsc2n1 | 43.2 | 29.1 µM [rising, single point] | –
35 | COc1ccc(Nc2ncnc3sc(-c4ccccc4)cc23)cc1OC | 43.8 | 13 µM [rising, single point] | –
36 | O=C(O)C1CCN(Cc2cccnc2)CC1 | -11.9 | – | –
37 | S=C(NCc1cccs1)Nc1cc(Cl)cc(Cl)c1 | -61.2 | 16.4 µM [falling, single point] | 18.4 µM [falling, single point]
38 | O=C(Cc1ccc(S(=O)(=O)N2CCCC2)s1)NC1CCCCCC1 | 35.7 | 9.2 µM [rising, partial curve, poor fit] | –
39 | COc1ccc2[nH]cc(/C=C/c3cc[n+](C)cc3)c2c1 | -59.9 | 29.1 µM [falling, single point] | 16.4 µM [falling, partial curve]
40 | O=C(Nc1cc(Cl)ccc1-n1cncn1)c1cc(F)cc(F)c1 | – | 1.84 µM [rising, single point] | –

Row | Compound | cell number change [%] | AC50 [1] | AC50 [2]
41 | COc1ccccc1-c1c(-c2ccc(OCC(=O)NN)cc2O)n[nH]c1C(F)(F)F | -52.8 | 20.6 µM [falling, partial curve, poor fit] | 0.13 µM [falling, full curve, poor fit]
42 | CC1CN(C(=O)c2ccccc2Sc2ccccc2C#N)CC(C)O1 (stereo unspecified) | 7.32 | – | 14.6 µM [rising, partial curve]
43 | N#Cc1ccc(CSc2nnc(-c3ccccc3)n2Cc2ccco2)cc1 | -31.4 | 1.3 µM [rising, partial curve] | –
44 | COC(=O)N1CCN(c2ccc(Cl)c(Cl)c2)CC1 | – | – | 20.6 µM [rising, partial curve]
45 | O=S(=O)(NC1=NCCC1)c1cccs1 | -26.9 | – | 0.0291 µM [falling, full curve]
46 | CCOc1ccc(N2CC(C(=O)Nc3cccc(S(=O)(=O)N4CCCC4)c3)CC2=O)cc1 (stereo unspecified) | – | 2.31 µM [rising, partial curve] | –
47 | COc1ccccc1CC(=O)N1CCN(c2cccc(C(F)(F)F)c2)CC1 | -17.1 | – | 16.4 µM [falling, single point]
48 | COc1cccc(C=Nc2ccc3c(c2)CCC3)c1O | -2.25 | – | 29.1 µM [falling, single point]
49 | Cc1oc2c(c(C)cc3oc(=O)c(CC(=O)NCCCN4CCCC4=O)c(C)c32)c1C | -30.2 | 0.206 µM [falling, full curve, poor fit] | 32.6 µM [falling, single point]
50 | O=C1N/C(=N/N=C/c2ccc(F)cc2)SC1c1ccccc1 (stereo unspecified) | 20.4 | – | –
51 | CCCCCN(C(=O)CCC(=O)OCC(=O)Nc1ccc(C)cc1F)c1c(N)n(CCCC)c(=O)[nH]c1=O | -44.5 | 16.4 µM [falling, single point] | 29.1 µM [falling, single point]
52 | CCCCN(C)CCNC(=O)c1nn(-c2ccc(OC)cc2)c(=O)c2c1c1ccccc1n2C | 11.3 | – | 7.31 µM [falling, single point]
53 | CN(C)c1nc(NCc2ccccc2)nc(SCC(=O)Nc2ccccc2)n1 | 14.1 | – | 18.4 µM [rising, single point]
54 | CC(=O)n1cc([C@H]2C=C(C(=O)NCc3ccccc3)O[C@@H](OCc3ccc(CO)cc3)C2)c2ccccc21 | -14.5 | – | 32.6 µM [falling, single point]
55 | CCOc1cc(/C=N/NC(=O)c2ccc(NC(=O)C3CC3)cc2)ccc1O | -28.4 | – | –
56 | CCOc1ccc(-c2c(C(=O)N/N=C/c3c[nH]c4ccccc34)nnn2-c2nonc2N)cc1 | 6.11 | – | 0.731 µM [falling, full curve]
57 | Cc1cc([N+](=O)[O-])nn1CC(=O)N1N=C(C(F)F)CC1(O)C(F)F (stereo unspecified) | 4.36 | – | 13 µM [rising, partial curve, poor fit]
58 | Cc1ccccc1OC1=NS(=O)(=O)c2ccccc21 | -30.6 | 29.1 µM [falling, single point] | 32.6 µM [falling, single point]
